# The entries are a selection whose mix differs from that of the whole data set. For some of these results: At the low end of the ranking the order means little.
# Protein sequences, listed by entry. Tags and fused reporters are not part of them. Lines headed by an entry give the natural chain unless they say otherwise; changes in a name come on top.
# UniProt Q01892: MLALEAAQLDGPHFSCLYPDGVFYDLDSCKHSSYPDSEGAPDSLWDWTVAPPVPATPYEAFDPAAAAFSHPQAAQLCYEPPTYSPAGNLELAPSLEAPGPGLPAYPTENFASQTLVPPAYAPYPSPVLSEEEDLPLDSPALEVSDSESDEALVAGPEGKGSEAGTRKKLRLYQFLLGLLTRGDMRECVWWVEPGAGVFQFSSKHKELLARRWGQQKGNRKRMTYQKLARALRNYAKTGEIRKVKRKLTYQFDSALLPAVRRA
# How the values were obtained:
# Assay in all cases: DAPPL (digital affinity profiling via proximity ligation, sequencing)
# Conditions in all cases: 10 mM Tris-HCl pH 7.5, 50 mM NaCl, 1 mM DTT, 4% glycerol, room temperature, 30 min; GST-TFs on glutathione beads, 16-mer random dsDNA library, 0.1% …; high values mean tight binding; double strand, one strand shown; scale: fold enrichment (6-mer frequency, TF over GST control)
# ETV2 = molecular target: T1, ETV2 (UniProt O00321)
# T1 sequence: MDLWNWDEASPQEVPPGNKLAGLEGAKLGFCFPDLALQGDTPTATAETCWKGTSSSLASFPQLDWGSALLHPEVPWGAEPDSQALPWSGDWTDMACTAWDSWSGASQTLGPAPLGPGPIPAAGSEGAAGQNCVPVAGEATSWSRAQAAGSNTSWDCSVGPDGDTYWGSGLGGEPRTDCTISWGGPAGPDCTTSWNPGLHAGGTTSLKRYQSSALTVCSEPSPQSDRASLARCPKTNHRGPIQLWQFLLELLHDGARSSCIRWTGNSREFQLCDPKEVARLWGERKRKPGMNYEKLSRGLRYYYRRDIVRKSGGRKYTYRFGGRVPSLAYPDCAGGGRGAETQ
# ETV3L = molecular target: T2, ETV3L (UniProt Q6ZN32)
# T2 sequence: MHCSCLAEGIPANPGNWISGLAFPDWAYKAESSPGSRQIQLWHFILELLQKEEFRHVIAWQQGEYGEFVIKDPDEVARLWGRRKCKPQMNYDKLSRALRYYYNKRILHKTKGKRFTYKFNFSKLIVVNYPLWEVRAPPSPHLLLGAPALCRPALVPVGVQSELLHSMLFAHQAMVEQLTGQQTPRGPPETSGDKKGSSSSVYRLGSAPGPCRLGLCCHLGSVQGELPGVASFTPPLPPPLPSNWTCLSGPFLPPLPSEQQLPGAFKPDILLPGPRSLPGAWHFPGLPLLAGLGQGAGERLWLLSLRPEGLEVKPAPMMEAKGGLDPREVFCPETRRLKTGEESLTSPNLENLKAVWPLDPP
# EHF = molecular target: T3, EHF (UniProt Q9NZC4)
# T3 sequence: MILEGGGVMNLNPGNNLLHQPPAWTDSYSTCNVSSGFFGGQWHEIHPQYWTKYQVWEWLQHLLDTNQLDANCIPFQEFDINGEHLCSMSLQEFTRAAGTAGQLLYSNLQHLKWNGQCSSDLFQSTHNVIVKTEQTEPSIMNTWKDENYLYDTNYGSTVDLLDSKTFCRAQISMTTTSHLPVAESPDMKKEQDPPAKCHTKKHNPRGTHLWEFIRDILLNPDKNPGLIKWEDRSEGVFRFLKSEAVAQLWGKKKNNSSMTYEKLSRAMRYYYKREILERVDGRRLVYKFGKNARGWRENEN
# SPIB = SPIB (UniProt Q01892)
sequence,measurement,setting,value
CCCAAT,binding signal,ETV2,1.3
ACTAAA,binding signal,ETV2,1.24
AATGGC,binding signal,ETV2,1.26
TACTTA,binding signal,ETV2,1.16
CCAATG,binding signal,ETV2,0.987
TCGCTT,binding signal,ETV2,1.05
CTATTC,binding signal,ETV2,1.37
TCCCGC,binding signal,ETV2,1.31
TACCGC,binding signal,ETV2,1.16
AAGCAC,binding signal,ETV2,1.22
TAACTC,binding signal,ETV2,0.989
TCTGGG,binding signal,ETV2,1.19
TCTGCT,binding signal,ETV2,1.53
TGTTAA,binding signal,ETV2,1.06
TGTGAC,binding signal,ETV2,1.09
TTGCCT,binding signal,ETV2,1.19
GATATC,binding signal,ETV2,1.51
CCGGAA,binding signal,ETV2,5.1
TTCCCT,binding signal,ETV2,1.62
TTTTGT,binding signal,ETV2,1.28
ATTTCT,binding signal,ETV2,1.4
ACTTCA,binding signal,ETV2,1.37
TGCCAA,binding signal,ETV2,0.956
AGAAAT,binding signal,ETV2,1.19
AATTGG,binding signal,ETV2,1.2
CTGACT,binding signal,ETV2,1.48
ATTGAA,binding signal,ETV2,1
TTCCTG,binding signal,ETV2,2.46
TTTTGC,binding signal,ETV2,1.53
TCCCAA,binding signal,ETV2,0.995
GGTCTT,binding signal,ETV2,1.08
GCTTCA,binding signal,ETV2,1.29
TGCGTA,binding signal,ETV3L,1.17
ACCACT,binding signal,ETV3L,1.36
CTGTCA,binding signal,EHF,1.12
same,binding signal,ETV2,1.19
GGATCC,binding signal,EHF,1.16
same,binding signal,ETV2,1.29
GTTTGG,binding signal,EHF,0.933
same,binding signal,ETV2,1.06
CCTGGG,binding signal,EHF,0.965
same,binding signal,ETV2,1.29
CGATGA,binding signal,EHF,1.08
same,binding signal,ETV2,0.977
AGAAGC,binding signal,EHF,1.21
same,binding signal,ETV2,1.22
CAATAA,binding signal,SPIB,1.11
same,binding signal,ETV2,1.14
same,binding signal,ETV3L,1.13
ACCACC,binding signal,SPIB,1.18
same,binding signal,ETV2,0.92
same,binding signal,ETV3L,1.08
TCTGTT,binding signal,EHF,1.45
same,binding signal,ETV2,1.3
CGACGA,binding signal,EHF,1.14
same,binding signal,ETV2,1.01
GAAATC,binding signal,EHF,1.53
same,binding signal,ETV2,1.45
CTAATG,binding signal,EHF,1.28
same,binding signal,ETV2,1.12
ATATGA,binding signal,EHF,1.07
same,binding signal,ETV2,0.985
CACTGG,binding signal,EHF,1.05
same,binding signal,ETV2,1.22
GGTTTC,binding signal,EHF,1.51
same,binding signal,ETV2,1.43
CTCAAT,binding signal,EHF,1.25
same,binding signal,ETV2,1.4
CTCAAC,binding signal,EHF,1.18
same,binding signal,ETV2,1.29
TGGTTA,binding signal,EHF,0.971
same,binding signal,ETV2,0.983
TAAGCT,binding signal,EHF,1.2
same,binding signal,ETV2,1.19
CTATAA,binding signal,EHF,1.12
same,binding signal,ETV2,1.15
GATTAC,binding signal,EHF,1.12
same,binding signal,ETV2,1.1
AACCCA,binding signal,EHF,0.949
same,binding signal,ETV2,0.983
AACGTC,binding signal,EHF,1.12
same,binding signal,ETV2,0.984
AATTTA,binding signal,SPIB,1.4
same,binding signal,ETV2,1.13
same,binding signal,ETV3L,1.25
ATACCC,binding signal,EHF,1.21
same,binding signal,ETV2,1.24
CAAAAA,binding signal,EHF,1.2
same,binding signal,ETV2,1.17
TGTTCT,binding signal,EHF,1.4
same,binding signal,ETV2,1.23
TTGGCC,binding signal,SPIB,1.16
same,binding signal,ETV2,1.08
same,binding signal,ETV3L,1.09
TACACG,binding signal,EHF,1.1
same,binding signal,ETV2,0.999
CGACCT,binding signal,SPIB,1.63
same,binding signal,ETV2,1.73
same,binding signal,ETV3L,1.75
TACATT,binding signal,SPIB,1.29
same,binding signal,ETV2,1.17
same,binding signal,ETV3L,1.18
TACGCT,binding signal,EHF,1.25
same,binding signal,ETV2,1.23
TCCCCA,binding signal,EHF,1.45
same,binding signal,ETV2,1.51
TACTGG,binding signal,EHF,0.97
same,binding signal,ETV2,1.3
TCCACA,binding signal,EHF,1.25
same,binding signal,ETV2,1.17
TAGTCT,binding signal,SPIB,0.9
same,binding signal,ETV2,0.812
same,binding signal,ETV3L,1.04
AAATCC,binding signal,EHF,1.58
same,binding signal,ETV2,1.45
TTATTT,binding signal,EHF,1.35
same,binding signal,ETV2,1.26
CCGTAA,binding signal,EHF,1.17
same,binding signal,ETV2,1.2
CGTTCA,binding signal,SPIB,1.2
same,binding signal,ETV2,1.19
TATATA,binding signal,EHF,1.32
same,binding signal,SPIB,1.49
same,binding signal,ETV2,1.08
TGGACC,binding signal,SPIB,1.02
same,binding signal,ETV2,0.978
GTCACA,binding signal,SPIB,1.07
same,binding signal,ETV2,1.01
ATTTGG,binding signal,SPIB,1.32
same,binding signal,ETV2,1.37
ACTTTG,binding signal,SPIB,1.16
same,binding signal,ETV2,1.39
AATCAA,binding signal,EHF,1.12
same,binding signal,SPIB,1.14
same,binding signal,ETV2,1.48
CGGCTA,binding signal,SPIB,1.21
same,binding signal,ETV2,0.966
TTCGTA,binding signal,SPIB,1.35
same,binding signal,ETV2,1.37
AGACCT,binding signal,EHF,0.975
same,binding signal,SPIB,0.975
same,binding signal,ETV2,1.2
TGAATT,binding signal,EHF,1.17
same,binding signal,SPIB,1.19
same,binding signal,ETV2,1.19
TATCTA,binding signal,EHF,1.2
same,binding signal,ETV2,1.25
TCACAT,binding signal,EHF,1.27
same,binding signal,ETV2,1.32
ACAAGC,binding signal,SPIB,1.12
same,binding signal,ETV2,1.06
GATGGT,binding signal,SPIB,1.19
same,binding signal,ETV2,1.37
AGATTC,binding signal,SPIB,1.14
same,binding signal,ETV2,1.32
GTACTC,binding signal,SPIB,0.96
same,binding signal,ETV2,0.88
TGCAAA,binding signal,SPIB,1.12
same,binding signal,ETV2,1.08
TTAGGG,binding signal,SPIB,1.17
same,binding signal,ETV2,1.15
CCAATC,binding signal,SPIB,1.1
same,binding signal,ETV2,1.16
CCCCCG,binding signal,SPIB,1.09
same,binding signal,ETV2,1.03
CCCTCC,binding signal,SPIB,1.39
same,binding signal,ETV2,1.32
TAACAA,binding signal,SPIB,1.13
same,binding signal,ETV2,1.26
CCGATG,binding signal,EHF,1.03
same,binding signal,SPIB,1.2
same,binding signal,ETV2,0.985
GCAAAA,binding signal,SPIB,1.13
same,binding signal,ETV2,1.14
AAGTAC,binding signal,EHF,1.59
same,binding signal,SPIB,1.57
same,binding signal,ETV2,1.41
TGCTCT,binding signal,SPIB,1.42
same,binding signal,ETV2,1.47
AATCGA,binding signal,EHF,0.962
same,binding signal,SPIB,1.07
same,binding signal,ETV2,0.854
TTGGGT,binding signal,SPIB,1.05
same,binding signal,ETV2,0.91
GTTTTC,binding signal,SPIB,1.2
same,binding signal,ETV2,1.25
GGGCTT,binding signal,EHF,1.24
same,binding signal,ETV2,0.955
TCGAAT,binding signal,SPIB,1.07
same,binding signal,ETV2,1.03
ACCCCG,binding signal,EHF,1.27
same,binding signal,SPIB,1.3
same,binding signal,ETV2,1.21
CAAATT,binding signal,SPIB,1.08
same,binding signal,ETV2,1.09
TCTGCC,binding signal,SPIB,1.32
same,binding signal,ETV2,1.24
ATGGAA,binding signal,SPIB,1.19
same,binding signal,ETV2,1.26
CCCCGG,binding signal,SPIB,1.27
same,binding signal,ETV2,1.24
TAATAA,binding signal,ETV3L,1.24
CACTTC,binding signal,ETV3L,3.63
CCTGGT,binding signal,ETV3L,1.53
TTGAAT,binding signal,ETV3L,1.01
CGATAC,binding signal,ETV3L,1.18
TAATTT,binding signal,ETV3L,1.48
AAGATA,binding signal,ETV3L,1.09
TGCTAA,binding signal,ETV3L,1.25
TCGACC,binding signal,ETV3L,1.33
GTGCTT,binding signal,ETV3L,1.14

# Random excerpt: three entries already listed.
sequence,measurement,setting,value
CTATAA,binding signal,EHF,1.12
CGTTCA,binding signal,ETV2,1.19
CCAATC,binding signal,SPIB,1.1

# An excerpt of these results, bar-delimited.
sequence | measurement | setting | value
TACTTA | binding signal | ETV2 | 1.16
CCAATG | binding signal | ETV2 | 0.987
TCGCTT | binding signal | ETV2 | 1.05
CTATTC | binding signal | ETV2 | 1.37
TCCCGC | binding signal | ETV2 | 1.31
TACCGC | binding signal | ETV2 | 1.16

# Reference: publication PMC7862700
